US12535491B2, “Vaccine comprising protein-targeted (PT) extracellular DNA isolated from bacterial matrix” (priority 2018, dated 2026)

System: heat-resistant proteins of human plasma
Test: LC/MS of heat-resistant proteins in plasma after exposure to proteinase K and boiling
Conditions: LC/MS; healthy human blood plasma after incubation for 30 minutes with Proteinase K, following heating for 100° C. for 5 minutes (probe_2)

| Substance | N-plasma + pK |
| --- | --- |
| HV315_HUMAN [HV315_HUMAN [3]] | 2 |
| FA9_HUMAN | 2 |
| APOA_HUMAN | 15 |
| HV315_HUMAN | 1 |
| APOB_HUMAN | 100 |
| CO3_HUMAN [CO3_HUMAN [3]] | 93 |
